From PMC10954470
These are yes or no findings as the source states them, for the method shown. Binding can be weak; no strength is given. Where a sequence is shown, tags or fusion partners need not be part of it.

Target: GBD-Rad50 head domain (Rad50 head fused to the Gal4 binding domain, plasmid pAB2287) (S. cerevisiae)
Assay: two-hybrid; GBD and GAD fusion plasmids co-transformed in YAB125 cells; 10-fold dilutions spotted on SC -leu -trp with or without histidine; 30°C, three or four days

| binding | Binder |
| --- | --- |
| binds | GAD-Rif2 (wild-type Rif2 fused to the Gal4 activation domain, plasmid pAB1243) (protein, UniProt Q06208 1-395) MEHVDSDFAPIRRSKKVVDSDKIVKAISDDLEQKNFTVLRKLNLVPIKKSVSSPKVCKPSPVKERVDHVFYQKFKSMALQELGTNYLSISYVPSLSKFLSKNLRSMKNCIVFFDKVEHIHQYAGIDRAVSETLSLVDINVVIIEMNDYLMKEGIQSSKSKECIESMGQASYSGQLDFEASEKPSNHTSDLMMMVMRKINNDESIDHIVYFKFEQLDKLSTSTIIEPSKLTEFINVLSVLEKSNNIAFKVLIYSNNVSISSLLSTSLKKKLNTKYTVFEMPILTCAQEQEYLKKMIKFTFDSGSKLLQSYNSLVTCQLNNKESNLAIFFEFLKVFPHPFTYLFNAYTEIIVQSRTFDELLDKIRNRLTIKNYPHSAYNFKKNQRLPLKLTRKVHDR |
| binds | GAD-Rif2^I23E (Rif2 I23E fused to the Gal4 activation domain, plasmid pML801) (protein, UniProt Q06208 1-395) MEHVDSDFAPIRRSKKVVDSDKEVKAISDDLEQKNFTVLRKLNLVPIKKSVSSPKVCKPSPVKERVDHVFYQKFKSMALQELGTNYLSISYVPSLSKFLSKNLRSMKNCIVFFDKVEHIHQYAGIDRAVSETLSLVDINVVIIEMNDYLMKEGIQSSKSKECIESMGQASYSGQLDFEASEKPSNHTSDLMMMVMRKINNDESIDHIVYFKFEQLDKLSTSTIIEPSKLTEFINVLSVLEKSNNIAFKVLIYSNNVSISSLLSTSLKKKLNTKYTVFEMPILTCAQEQEYLKKMIKFTFDSGSKLLQSYNSLVTCQLNNKESNLAIFFEFLKVFPHPFTYLFNAYTEIIVQSRTFDELLDKIRNRLTIKNYPHSAYNFKKNQRLPLKLTRKVHDR |
